According to PubChem BioAssay AID485349 (National Center for Advancing Translational Sciences (NCATS), 2010):
Screen size: about 320,000 compounds; about 620 (0.19%) were called active. Inconclusive results, whose numbers are uncertain, are shown with a selection of clear calls. Calls come from the whole dose curve; as a rule, active = well fitted activation curve with a large enough effect; inconclusive = small, poorly fitted or top-dose-only effect; inactive = no such curve, though single readings can be large or run the other way. Potencies of inconclusive entries are doubtful fits and often do not repeat.
Potency is the fitted concentration of half-maximal effect.

Experiment: qHTS Assay for Identifying a Potential Treatment of Ataxia-Telangiectasia; note: nearly all actives have a fitted effect of over 45% in size; for activation: % of control where 0% means no effect
Conditions: […] A-T fibroblasts, KAP-1 phosphorylation AlphaLISA, neocarzinostatin DNA damage 30 min before lysis; series mostly up to 57.5 µM; activation: at the top concentration
How it was run: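 hTERT-immortalized A-T patient fibroblasts ([…]), 500 cells/well in OPTI-MEM, 1% FBS, got compounds for 60 min, then NCS for 30 min at 37C. Lysates were then assayed for phospho-KAP-1 by AlphaLISA (anti-pKAP1 donor, anti-KAP1 acceptor beads), 6 hr at 25C.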
For `Cc1cccn2c(=O)c3cc(C(=O)N4CCN(C(=O)c5ccco5)CC4)n(C)c3nc12`, the Potency was inconclusive: 39.8 µM [activator, single point]. For `COc1ccc(C(=O)Nc2cccc(/C=C/c3nc4ccccc4c(=O)[nH]3)c2)cc1`, the Potency was active: 20 µM. In the case of `COc1ccccc1NC(=O)CCc1nnc2ccc(N3CCC4(CC3)OCCO4)nn12`, the Potency is reported as inconclusive: 4.47 µM [activator, full curve, poor fit]. In the case of `O=C1CC(=C(c2ccccc2)c2ccccc2)C(=O)N1CCCCN1CCN(c2ccccc2)CC1`, the “activation” value is reported as inactive: -30.9%. In the case of `CCOc1ccc(N(Cc2cc3ccc(C)cc3[nH]c2=O)C(=O)COC)cc1`, the Potency is reported as inconclusive: 3.16 µM [activator, partial curve]. With `Clc1ccc(-c2[nH]ncc2N=Nc2ccccc2)cc1` the Potency was inconclusive: 15.8 µM [activator, single point]. For `CCN(CC)c1ccc(SS(=O)(=O)O)cc1`, the “activation” value was inactive: -1.14%. In the case of `COc1ccc(OCc2cc(/C=N\NC(=O)c3ccccc3)ccc2OC)cc1`, the Potency is reported as inconclusive: 39.8 µM [activator, single point]. In the case of `CCOc1ccc(S(=O)(=O)Nc2ccc(C(=O)NCC(c3ccco3)N3CCCCC3)cc2)cc1` (stereo not given), the “activation” value is reported as inactive: -15.7%. With `Nc1nnc(CCc2ccccc2)s1` the Potency was inconclusive: 39.8 µM [activator, partial curve]. With `N#Cc1cc(-c2ccccc2)nc(N2CCNCC2)n1` the Potency was active: 31.6 µM. For `CNC(=O)CN1C(=O)CSc2ncccc21`, the “activation” value was inactive: -2.44%. With `Cc1ccc(Nc2nc(NCCO)nc3c2cnn3C)cc1Cl` the Potency was inconclusive: 5.62 µM [activator, full curve, poor fit]. For `O=C(COc1ccc2c3c(c(=O)oc2c1)CCCC3)NCc1cccnc1`, the Potency was inconclusive: 3.16 µM [activator, full curve, poor fit]. With `NC(=O)c1ccc(-n2nnnc2SCc2ccccc2)cc1` the Potency was inconclusive: 39.8 µM [activator, partial curve]. In the case of `O=[N+]([O-])c1ccc(-[n+]2ccc3ccccc3c2)c([N+](=O)[O-])c1`, the Potency is reported as inconclusive: 7.08 µM [activator, single point]. With `Cn1nc(-c2ccc(C(=O)NCC3CCCO3)cc2)c2ccccc2c1=O` (stereo not given) the Potency was inconclusive: 39.8 µM [activator, partial curve]. With `O=C(CCC(=O)Nc1ccccc1)N/N=C/c1ccncc1` the Potency was inconclusive: 35.5 µM [activator, single point]. With `CC/C(=N/N=C(\CC)c1ccccc1)c1ccccc1` the Potency was inconclusive: 39.8 µM [activator, single point]. In the case of `C=CC[C@@H](Cc1ccc(F)cc1)C(=O)OC[C@H]1CCCN1C(=O)[C@@H](CC=C)CC(=O)N[C@@H](CO)Cc1ccccc1`, the “activation” value is reported as inactive: -3.54%. With `O=C(CN1C(=O)c2cccc([N+](=O)[O-])c2C1=O)NCc1ccccc1` the Potency was active: 3.16 µM. With `CCCCCCc1cc2cc(-c3nnc(-c4ccccc4OC)o3)c(=O)oc2cc1O` the Potency was inconclusive: 20 µM [activator, partial curve]. For `CCc1ccc(NC(=O)CCC(=O)c2ccc(C)cc2)cc1`, the Potency was inconclusive: 10 µM [activator, partial curve]. With `CC(/C=N/n1c(C2CCCCC2)n[nH]c1=S)=C\c1ccccc1` the Potency was inconclusive: 39.8 µM [activator, single point]. In the case of `COc1cccc2[nH]c(=O)c(-c3ccccc3)cc12`, the Potency is reported as inconclusive: 0.708 µM [activator, full curve, poor fit]. In the case of `O=C(Nc1cccc(-c2nc3ccccc3[nH]2)c1)c1ccc(C(=O)Nc2cccc(-c3nc4ccccc4[nH]3)c2)cc1`, the Potency is reported as inconclusive: 10 µM [activator, partial curve]. With `CS/C(=C\[N+](=O)[O-])Nc1ccc(C)cc1` the “activation” value was inactive: -0.888%. With `COc1ccc(CCNCC(=O)Nc2ccccc2C(F)(F)F)cc1` the Potency was inconclusive: 15.8 µM [activator, partial curve]. For `COc1ccc(N=C2SCC(c3ccccc3)=NN2C)cc1`, the Potency was inconclusive: 7.08 µM [activator, single point]. In the case of `CC(C)(C)NC(=O)CSc1nnc(-c2ccccn2)n1Cc1ccccc1`, the Potency is reported as inconclusive: 20 µM [activator, partial curve]. With `O=C(c1ccc(COc2ccc(Br)cc2)o1)N1N=C(C(F)F)CC1(O)C(F)F` (stereo not given) the Potency was inconclusive: 0.708 µM [activator, full curve, poor fit]. In the case of `O=C1OCCN1/N=C/c1ccc([N+](=O)[O-])o1`, the Potency is reported as inconclusive: 22.4 µM [activator, partial curve, poor fit]. For `Cc1ccccc1N1CCN(C(=O)c2ccccc2NC(=O)c2ccccc2C(=O)O)CC1`, the “activation” value was inactive: 2.84%. In the case of `CN(C)c1ccc(C(CNC(=O)c2ccco2)N2CCCC2)cc1` (stereo not given), the “activation” value is reported as inactive: 2.5%. For `COc1ccc2c(C#CCCO)c(-c3ccc(S(C)(=O)=O)cc3)sc2c1`, the Potency was inconclusive: 14.1 µM [activator, partial curve]. For `Nc1nc(Nc2ccccc2)nc(NC2CCCCC2)c1[N+](=O)[O-]`, the Potency was inconclusive: 39.8 µM [activator, single point]. With `O=C(Nc1cccc(S(=O)(=O)N2CCOCC2)c1)c1ccccn1` the Potency was inconclusive: 11.2 µM [activator, partial curve]. In the case of `N#CC1c2ccccc2C=CN1C(=O)c1ccccc1` (stereo not given), the Potency is reported as inconclusive: 0.708 µM [activator, full curve, poor fit]. For `CCOc1ccc(C2C(C(=O)OC)=CN(CCOC)C=C2C(=O)OC)cc1`, the Potency was active: 28.2 µM. In the case of `CCN(CC)CCCN1C=C2C(=O)C(C)(OC(=O)CCc3ccccc3)C(=O)C=C2C=C1c1ccc(C#N)cc1` (stereo not given), the Potency is reported as inconclusive: 3.16 µM [activator, partial curve]. In the case of `COc1cccc(C(=O)NOCc2ccc(C)cc2)c1OC`, the Potency is reported as inconclusive: 2.82 µM [activator, full curve]. For `Cc1nn(C)c(C)c1/C=C(/C(=O)C(C)C)n1cncn1`, the Potency was inconclusive: 3.16 µM [activator, partial curve]. With `Fc1ccc(/C=N/N2CCOCC2)c(F)c1` the “activation” value was inactive: -7.32%. For `COc1ccc(-c2sc3ccccc3c2C#CCCO)cc1`, the Potency was inconclusive: 39.8 µM [activator, single point]. With `CN(CCOc1ccc(Cl)cc1)CC(=O)Nc1ccc(OC(F)(F)F)cc1` the Potency was inconclusive: 20 µM [activator, partial curve]. With `CC1(C)Cc2c(c(-c3ccco3)[nH]c(=O)c2C#N)CS1` the “activation” value was inactive: 13.4%. For `COc1ccc(OC)c(C(=O)/C=C/c2ccccc2C(F)(F)F)c1`, the Potency was inconclusive: 31.6 µM [activator, single point]. With `Cc1ccc(S(=O)(=O)N2CCN(C(=O)c3ccco3)CC2)c(C)c1` the Potency was inconclusive: 8.91 µM [activator, single point]. In the case of `CCCC(=O)NC(=S)Nc1cccc(Cl)c1N1CCCC1`, the Potency is reported as inconclusive: 28.2 µM [activator, single point]. For `Cc1nc(N2CCN(C)CC2)[nH]c(=O)c1Cc1cccc2ccccc12`, the “activation” value was inactive: 8.11%. With `CCOc1ccc(Oc2ccc(C(F)(F)F)cc2N)cc1` the Potency was inconclusive: 39.8 µM [activator, single point]. For `COc1ccc(NC(=O)CC2Nc3ccccc3NC2=O)c([N+](=O)[O-])c1` (stereo not given), the “activation” value was inactive: 1.31%. In the case of `COc1cccc(CNC(=O)CCNS(=O)(=O)c2ccc3c(c2)oc(=O)n3C)c1`, the Potency is reported as inconclusive: 22.4 µM [activator, partial curve]. In the case of `O=C1c2ccccc2C(=O)c2c1ncn2-c1ccccc1`, the “activation” value is reported as inactive: 4.79%. With `O=C(Nc1sc2c(c1C(=O)NCCCO)CCCC2)c1ccccc1` the Potency was inconclusive: 39.8 µM [activator, single point]. With `CC(C)c1cc(C(=O)OCC(=O)NC(=O)NCc2ccco2)c(O)c(C(C)C)c1` the Potency was inconclusive: 39.8 µM [activator, single point]. With `O=C(O)CCCN1C(=O)/C(=C/c2ccc(-c3nc4ccccc4s3)o2)SC1=S` the “activation” value was inactive: 7.67%. In the case of `COc1ccc2sc(-c3ccc(SC)cc3)c(C#CC(C)(C)O)c2c1`, the Potency is reported as inconclusive: 39.8 µM [activator, single point]. In the case of `CN1C(=O)c2cccc3c(N)ccc(c23)C1=O`, the Potency is reported as active: 17.8 µM. For `Nc1nc(N)c(N=Nc2ccc(C(=O)O)cc2)c(N)n1`, the Potency was inconclusive: 0.355 µM [activator, full curve, poor fit]. In the case of `Cn1c(SCc2ccc(Br)cc2)nnc1-c1cccs1`, the “activation” value is reported as inactive: -1.29%. In the case of `COc1ccc(C2=NN(c3ccccc3)C(c3cn(CCC(=O)O)nc3-c3ccccc3)C2)cc1` (stereo not given), the Potency is reported as inconclusive: 39.8 µM [activator, partial curve]. With `O=c1c2ccccc2oc2cc(NCCCn3ccnc3)ccc12` the Potency was inconclusive: 25.1 µM [activator, single point]. With `CCC(CC)c1nnc(NC(=O)c2ccco2)s1` the “activation” value was inactive: 2.59%. In the case of `CCOC(=O)c1c(NC(=O)CN(CC)CC)sc2c1CCC2`, the Potency is reported as active: 22.4 µM. For `COC(=O)C1=CN(Cc2ccc(OC)cc2)C=C(C(=O)OC)C1c1cc(OC)c(OC)c(OC)c1`, the Potency was inconclusive: 25.1 µM [activator, single point]. For `CCN1CCN(c2ccc(S(=O)(=O)N3CCCCC3)cc2NC(=O)/C=C/c2ccc(OC(F)F)cc2)CC1`, the “activation” value was inactive: 3.2%. For `Cc1ccc2nc(C)c3c(c2c1)OC(C(C)(Cl)Br)C3` (stereo not given), the Potency was inconclusive: 44.7 µM [activator, partial curve, poor fit]. With `Cc1ccc(NC(=S)NCCCN2CCOCC2)cc1C` the Potency was inconclusive: 0.708 µM [activator, full curve, poor fit]. With `COc1ccc(OC)c(NC(=O)Cc2c(C(=O)O)n(C)c3ccccc23)c1` the Potency was inconclusive: 0.631 µM [activator, full curve, poor fit].
